± gives the standard deviation of the averaged measurements. The list shows a part of the results, in another mix than the full data.
Compound: Nc1ncnc2c1ncn2[C@@H]1O[C@H](COP(=O)(O)OP(=O)(O)NP(=O)(O)O)[C@@H](O)[C@H]1O [adenylyl imidodiphosphate]
Assay: NP40-soluble protein abundance relative to vehicle (solubility fold change) (ratio); higher = more soluble protein in presence of AMP-PNP
Procedure, shortened: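 Jurkat crude lysate (Dounce-homogenised) was treated with eight concentrations from 0.1 to 10 mM for 10 min at room temperature, then 3 min at 37 °C. It was solubilised with 0.8% NP40 and benzonase (60 min, 4 °C) and ultracentrifuged, and the supernatant was TMT-labelled for LC-MS/MS. Intensities were vsn-normalised, and the value is the fold change against the NP40-processed vehicle per replicate, from three independent experiments.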

Sequences of proteins named here, by UniProt entry; tags and fusion partners are left off. A change or cut given only in a name is not applied to a line headed by its entry.
UniProt Q9UMX5: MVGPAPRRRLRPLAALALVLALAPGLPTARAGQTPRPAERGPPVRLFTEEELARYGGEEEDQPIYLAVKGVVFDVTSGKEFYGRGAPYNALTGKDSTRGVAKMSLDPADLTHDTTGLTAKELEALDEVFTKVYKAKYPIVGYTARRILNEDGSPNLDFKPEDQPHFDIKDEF
UniProt Q9UH99: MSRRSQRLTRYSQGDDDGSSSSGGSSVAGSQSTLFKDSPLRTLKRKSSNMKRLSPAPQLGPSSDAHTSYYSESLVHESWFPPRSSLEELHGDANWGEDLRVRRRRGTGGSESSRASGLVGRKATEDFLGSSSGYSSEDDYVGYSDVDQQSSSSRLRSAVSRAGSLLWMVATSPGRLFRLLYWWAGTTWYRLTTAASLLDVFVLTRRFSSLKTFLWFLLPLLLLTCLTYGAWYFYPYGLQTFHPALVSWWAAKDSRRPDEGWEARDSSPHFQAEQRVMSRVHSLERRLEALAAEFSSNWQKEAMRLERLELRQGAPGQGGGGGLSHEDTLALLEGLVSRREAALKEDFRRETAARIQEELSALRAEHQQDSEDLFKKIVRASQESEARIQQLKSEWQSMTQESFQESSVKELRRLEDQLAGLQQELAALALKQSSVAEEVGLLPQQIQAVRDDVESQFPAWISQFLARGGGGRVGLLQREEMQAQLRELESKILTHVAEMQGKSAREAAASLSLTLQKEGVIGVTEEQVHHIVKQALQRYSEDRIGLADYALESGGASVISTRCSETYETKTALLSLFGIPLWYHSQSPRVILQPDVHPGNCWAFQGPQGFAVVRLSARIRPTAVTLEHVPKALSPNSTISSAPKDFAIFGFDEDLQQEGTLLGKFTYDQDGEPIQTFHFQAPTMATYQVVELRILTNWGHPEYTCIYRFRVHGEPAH
UniProt Q9UDY2: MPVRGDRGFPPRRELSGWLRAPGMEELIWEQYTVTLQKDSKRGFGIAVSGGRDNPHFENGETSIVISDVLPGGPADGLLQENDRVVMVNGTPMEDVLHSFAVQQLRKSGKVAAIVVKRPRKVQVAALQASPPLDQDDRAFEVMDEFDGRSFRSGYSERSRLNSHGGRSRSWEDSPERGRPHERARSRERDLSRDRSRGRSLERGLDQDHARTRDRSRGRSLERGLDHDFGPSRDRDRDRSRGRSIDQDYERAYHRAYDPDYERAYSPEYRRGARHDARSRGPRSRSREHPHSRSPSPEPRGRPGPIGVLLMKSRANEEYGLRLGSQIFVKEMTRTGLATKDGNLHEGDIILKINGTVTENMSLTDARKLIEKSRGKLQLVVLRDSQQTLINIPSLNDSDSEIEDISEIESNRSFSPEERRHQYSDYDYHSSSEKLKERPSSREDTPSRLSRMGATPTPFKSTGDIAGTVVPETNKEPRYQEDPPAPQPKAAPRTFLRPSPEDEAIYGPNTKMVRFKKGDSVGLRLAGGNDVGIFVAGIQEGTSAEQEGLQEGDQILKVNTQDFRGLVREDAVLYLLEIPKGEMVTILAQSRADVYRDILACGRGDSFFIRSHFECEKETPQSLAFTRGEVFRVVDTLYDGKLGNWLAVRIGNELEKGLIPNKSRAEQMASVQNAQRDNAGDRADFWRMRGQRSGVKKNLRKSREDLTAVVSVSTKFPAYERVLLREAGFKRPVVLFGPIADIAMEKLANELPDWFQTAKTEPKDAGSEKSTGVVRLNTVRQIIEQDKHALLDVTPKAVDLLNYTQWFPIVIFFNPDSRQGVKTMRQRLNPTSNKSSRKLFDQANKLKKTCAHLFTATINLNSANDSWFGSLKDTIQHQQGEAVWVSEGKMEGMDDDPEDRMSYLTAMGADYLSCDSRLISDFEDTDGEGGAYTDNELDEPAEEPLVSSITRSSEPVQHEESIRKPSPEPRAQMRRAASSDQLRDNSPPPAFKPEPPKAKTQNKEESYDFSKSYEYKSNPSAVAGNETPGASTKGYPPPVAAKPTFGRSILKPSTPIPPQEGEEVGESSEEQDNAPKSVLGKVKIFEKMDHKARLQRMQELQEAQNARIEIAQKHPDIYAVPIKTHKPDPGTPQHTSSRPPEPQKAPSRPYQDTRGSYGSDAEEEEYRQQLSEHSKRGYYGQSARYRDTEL
UniProt Q9ULM3: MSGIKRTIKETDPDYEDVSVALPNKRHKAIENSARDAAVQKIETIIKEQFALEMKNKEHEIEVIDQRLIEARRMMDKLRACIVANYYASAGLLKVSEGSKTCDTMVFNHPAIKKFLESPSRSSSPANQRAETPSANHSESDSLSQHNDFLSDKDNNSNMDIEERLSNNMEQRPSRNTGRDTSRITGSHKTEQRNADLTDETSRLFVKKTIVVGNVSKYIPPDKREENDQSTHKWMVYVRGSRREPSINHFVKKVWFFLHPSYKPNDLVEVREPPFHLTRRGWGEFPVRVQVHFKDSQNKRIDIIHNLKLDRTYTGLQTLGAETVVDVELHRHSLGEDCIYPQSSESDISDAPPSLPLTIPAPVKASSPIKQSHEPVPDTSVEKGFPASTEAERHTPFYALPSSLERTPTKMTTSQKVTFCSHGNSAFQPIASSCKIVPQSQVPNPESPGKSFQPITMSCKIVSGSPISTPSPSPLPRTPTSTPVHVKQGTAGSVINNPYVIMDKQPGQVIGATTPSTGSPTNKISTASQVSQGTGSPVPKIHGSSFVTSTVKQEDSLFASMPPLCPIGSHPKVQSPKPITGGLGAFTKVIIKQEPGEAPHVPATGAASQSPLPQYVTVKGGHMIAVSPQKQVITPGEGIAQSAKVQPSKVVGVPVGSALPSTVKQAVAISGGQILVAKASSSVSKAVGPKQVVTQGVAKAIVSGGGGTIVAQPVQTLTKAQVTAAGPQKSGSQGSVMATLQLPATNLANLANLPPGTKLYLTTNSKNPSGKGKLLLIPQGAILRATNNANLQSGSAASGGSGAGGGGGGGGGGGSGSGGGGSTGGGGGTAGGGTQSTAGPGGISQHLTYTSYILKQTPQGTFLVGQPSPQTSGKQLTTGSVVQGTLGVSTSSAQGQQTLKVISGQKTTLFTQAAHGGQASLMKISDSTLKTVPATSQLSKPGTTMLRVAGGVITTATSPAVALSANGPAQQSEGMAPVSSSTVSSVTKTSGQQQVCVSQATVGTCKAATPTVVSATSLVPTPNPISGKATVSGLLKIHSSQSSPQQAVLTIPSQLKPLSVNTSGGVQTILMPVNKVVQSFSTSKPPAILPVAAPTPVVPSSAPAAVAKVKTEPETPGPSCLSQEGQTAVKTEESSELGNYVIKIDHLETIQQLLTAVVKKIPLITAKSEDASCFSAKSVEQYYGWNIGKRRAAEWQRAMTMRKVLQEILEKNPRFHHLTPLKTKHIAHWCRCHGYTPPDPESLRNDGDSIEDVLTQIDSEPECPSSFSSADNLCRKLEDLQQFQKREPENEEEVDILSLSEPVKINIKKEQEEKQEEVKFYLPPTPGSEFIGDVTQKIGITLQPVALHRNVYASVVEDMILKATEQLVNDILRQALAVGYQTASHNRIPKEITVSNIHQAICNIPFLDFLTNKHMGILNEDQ
UniProt Q9UJ70, whole entry: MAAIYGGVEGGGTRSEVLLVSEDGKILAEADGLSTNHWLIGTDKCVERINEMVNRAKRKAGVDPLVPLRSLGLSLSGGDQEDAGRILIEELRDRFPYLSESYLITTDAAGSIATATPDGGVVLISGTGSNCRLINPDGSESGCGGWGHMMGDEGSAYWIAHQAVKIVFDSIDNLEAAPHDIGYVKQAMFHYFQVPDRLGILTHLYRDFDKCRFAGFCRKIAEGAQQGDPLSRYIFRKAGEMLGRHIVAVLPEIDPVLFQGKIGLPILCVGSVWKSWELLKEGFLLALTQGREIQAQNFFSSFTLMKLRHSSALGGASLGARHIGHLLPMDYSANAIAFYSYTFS
UniProt Q9UK59: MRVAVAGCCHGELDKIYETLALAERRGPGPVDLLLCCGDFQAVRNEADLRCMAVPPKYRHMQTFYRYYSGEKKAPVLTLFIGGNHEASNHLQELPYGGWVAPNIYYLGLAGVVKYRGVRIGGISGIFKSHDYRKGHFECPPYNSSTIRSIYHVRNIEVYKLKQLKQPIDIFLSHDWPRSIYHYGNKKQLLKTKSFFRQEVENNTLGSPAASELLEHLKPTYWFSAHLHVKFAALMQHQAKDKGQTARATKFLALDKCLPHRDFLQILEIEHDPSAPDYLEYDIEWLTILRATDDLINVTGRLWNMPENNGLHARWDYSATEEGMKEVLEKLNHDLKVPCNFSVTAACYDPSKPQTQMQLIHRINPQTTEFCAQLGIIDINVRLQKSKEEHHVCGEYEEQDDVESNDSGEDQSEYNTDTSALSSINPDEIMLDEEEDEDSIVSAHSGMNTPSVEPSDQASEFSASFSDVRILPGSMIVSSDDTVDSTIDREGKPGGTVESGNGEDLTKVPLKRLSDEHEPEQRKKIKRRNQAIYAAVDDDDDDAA
UniProt Q9ULX3: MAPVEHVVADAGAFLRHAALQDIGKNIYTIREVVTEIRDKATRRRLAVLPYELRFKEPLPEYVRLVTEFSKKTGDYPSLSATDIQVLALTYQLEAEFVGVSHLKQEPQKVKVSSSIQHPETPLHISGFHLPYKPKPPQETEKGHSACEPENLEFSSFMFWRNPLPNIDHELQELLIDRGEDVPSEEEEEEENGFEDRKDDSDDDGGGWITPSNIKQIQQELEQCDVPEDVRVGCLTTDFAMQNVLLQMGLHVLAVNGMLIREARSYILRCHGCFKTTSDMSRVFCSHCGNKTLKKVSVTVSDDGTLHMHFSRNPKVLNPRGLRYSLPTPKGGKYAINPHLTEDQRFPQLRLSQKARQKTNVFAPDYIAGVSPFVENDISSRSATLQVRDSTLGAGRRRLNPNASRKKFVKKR
UniProt Q9Y3C8: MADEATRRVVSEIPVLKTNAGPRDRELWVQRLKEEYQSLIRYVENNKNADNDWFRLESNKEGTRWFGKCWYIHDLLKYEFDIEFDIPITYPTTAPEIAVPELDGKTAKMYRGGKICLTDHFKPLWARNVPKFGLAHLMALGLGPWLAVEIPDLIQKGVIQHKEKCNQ
UniProt Q9UHY7: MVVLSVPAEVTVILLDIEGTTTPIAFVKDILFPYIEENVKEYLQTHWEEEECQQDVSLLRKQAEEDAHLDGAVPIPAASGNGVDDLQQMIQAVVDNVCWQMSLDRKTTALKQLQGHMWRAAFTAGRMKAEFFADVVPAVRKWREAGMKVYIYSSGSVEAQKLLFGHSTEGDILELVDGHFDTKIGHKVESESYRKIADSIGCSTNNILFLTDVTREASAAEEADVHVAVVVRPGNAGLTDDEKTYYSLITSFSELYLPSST
UniProt Q9UNX4: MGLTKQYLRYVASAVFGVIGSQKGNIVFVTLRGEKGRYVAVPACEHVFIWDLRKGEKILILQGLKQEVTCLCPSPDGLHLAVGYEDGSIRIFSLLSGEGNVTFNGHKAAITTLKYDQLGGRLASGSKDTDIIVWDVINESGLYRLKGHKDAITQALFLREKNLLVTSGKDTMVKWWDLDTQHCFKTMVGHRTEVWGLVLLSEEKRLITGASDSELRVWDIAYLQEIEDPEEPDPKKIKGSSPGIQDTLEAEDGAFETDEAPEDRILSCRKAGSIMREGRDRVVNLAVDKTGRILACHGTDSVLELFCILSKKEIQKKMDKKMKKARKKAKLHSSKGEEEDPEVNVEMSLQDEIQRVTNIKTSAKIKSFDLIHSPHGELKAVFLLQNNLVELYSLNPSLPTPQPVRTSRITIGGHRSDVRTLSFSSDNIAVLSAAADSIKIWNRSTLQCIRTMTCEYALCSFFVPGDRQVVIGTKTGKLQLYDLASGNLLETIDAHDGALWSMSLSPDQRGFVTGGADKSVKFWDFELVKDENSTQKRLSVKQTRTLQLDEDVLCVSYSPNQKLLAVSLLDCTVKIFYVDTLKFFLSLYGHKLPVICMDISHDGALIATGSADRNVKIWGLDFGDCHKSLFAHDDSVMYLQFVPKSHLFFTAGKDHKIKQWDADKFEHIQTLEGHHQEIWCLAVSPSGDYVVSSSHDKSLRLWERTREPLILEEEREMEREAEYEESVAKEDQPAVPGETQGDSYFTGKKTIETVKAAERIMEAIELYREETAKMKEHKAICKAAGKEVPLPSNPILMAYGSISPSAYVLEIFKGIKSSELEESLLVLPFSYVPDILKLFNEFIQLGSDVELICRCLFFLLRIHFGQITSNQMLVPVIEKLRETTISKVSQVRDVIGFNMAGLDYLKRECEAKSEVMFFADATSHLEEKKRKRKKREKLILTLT
UniProt Q9UHH9: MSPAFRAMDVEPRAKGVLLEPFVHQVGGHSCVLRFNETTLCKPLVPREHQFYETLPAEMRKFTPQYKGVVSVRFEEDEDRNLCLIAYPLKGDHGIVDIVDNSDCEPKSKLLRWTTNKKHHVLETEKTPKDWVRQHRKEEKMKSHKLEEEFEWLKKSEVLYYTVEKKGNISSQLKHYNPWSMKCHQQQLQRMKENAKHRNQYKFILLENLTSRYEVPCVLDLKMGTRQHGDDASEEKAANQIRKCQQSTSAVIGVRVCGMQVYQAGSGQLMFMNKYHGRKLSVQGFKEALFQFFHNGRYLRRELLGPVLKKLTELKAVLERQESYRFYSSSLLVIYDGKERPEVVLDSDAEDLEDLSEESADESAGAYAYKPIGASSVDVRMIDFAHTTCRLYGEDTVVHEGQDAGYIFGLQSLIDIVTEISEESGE

Target	NP40-soluble protein abundance (concentration: 1mM)	NP40-soluble protein abundance (concentration: 2mM)	NP40-soluble protein abundance (concentration: 4mM)	NP40-soluble protein abundance (concentration: 6mM)	NP40-soluble protein abundance (concentration: 8mM)	NP40-soluble protein abundance (concentration: 10mM)
CDC23 (UniProt Q9UJX2)	0.996 ± 0.044	0.988 ± 0.052	1.03 ± 0.069	1.02 ± 0.016	1.04 ± 0.096	1.04 ± 0.12
DPP7 (UniProt Q9UHL4)	0.977 ± 0.041	0.98 ± 0.025	1 ± 0.041	1.02 ± 0.044	1.01 ± 0.057	1.02 ± 0.048
RCL1 (UniProt Q9Y2P8)	0.9923 ± 0.0056	0.892 ± 0.078	0.97 ± 0.011	1.02 ± 0.029	1.04 ± 0.019	0.968 ± 0.055
UniProt Q9UN36 and related entries	1.02 ± 0.015	1.04 ± 0.032	1.01 ± 0.06	0.986 ± 0.025	0.973 ± 0.069	0.979 ± 0.024
TRMT6 (UniProt Q9UJA5)	1.013 ± 0.0062	1.02 ± 0.047	1.02 ± 0.023	1.03 ± 0.012	1.03 ± 0.017	1.047 ± 0.0057
NENF (UniProt Q9UMX5)	0.971 ± 0.029	1.05 ± 0.06	0.96 ± 0.048	0.945 ± 0.031	0.911 ± 0.017	0.906 ± 0.038
UniProt Q9UH99 and related entries	1.02 ± 0.024	1.015 ± 0.006	1.013 ± 0.0092	1 ± 0.022	1.03 ± 0.013	1.003 ± 0.0041
UniProt Q9UBT2 and related entries	1.02 ± 0.032	0.989 ± 0.03	0.99 ± 0.029	1.02 ± 0.05	1.04 ± 0.02	1.02 ± 0.061
NUDC (UniProt Q9Y266)	1.03 ± 0.022	1.04 ± 0.084	0.989 ± 0.059	1.03 ± 0.04	1 ± 0.055	1 ± 0.075
UniProt Q9UDY2 and related entries	1.02 ± 0.017	1.03 ± 0.043	1.02 ± 0.036	1.03 ± 0.065	1.04 ± 0.059	1.02 ± 0.054
USP24 (UniProt Q9UPU5)	0.979 ± 0.014	0.941 ± 0.025	0.978 ± 0.019	0.948 ± 0.018	0.968 ± 0.024	0.929 ± 0.034
SLC5A6 (UniProt Q9Y289)	1.02 ± 0.042	1.01 ± 0.022	1.01 ± 0.049	1 ± 0.042	1.01 ± 0.048	1.02 ± 0.021
UBQLN2 (UniProt Q9UHD9)	0.966 ± 0.033	0.988 ± 0.019	0.964 ± 0.022	0.9609 ± 0.0091	0.931 ± 0.048	0.952 ± 0.016
AMFR (UniProt Q9UKV5)	0.983 ± 0.011	1.03 ± 0.056	1 ± 0.033	0.978 ± 0.014	0.964 ± 0.018	0.994 ± 0.011
TBK1 (UniProt Q9UHD2)	0.994 ± 0.024	0.941 ± 0.051	0.99 ± 0.032	0.953 ± 0.038	0.959 ± 0.027	0.938 ± 0.018
YEATS2 (UniProt Q9ULM3)	0.999 ± 0.029	0.984 ± 0.028	1.01 ± 0.06	0.992 ± 0.036	0.987 ± 0.018	0.999 ± 0.021
DRG1 (UniProt Q9Y295)	0.997 ± 0.032	0.974 ± 0.019	1.01 ± 0.026	1.04 ± 0.053	1.05 ± 0.028	1.04 ± 0.04
NAGK (UniProt Q9UJ70)	0.96 ± 0.047	0.908 ± 0.082	0.973 ± 0.048	1.04 ± 0.073	1.04 ± 0.07	0.987 ± 0.014
UniProt Q9UMS0 and related entries	1.04 ± 0.047	1.07 ± 0.037	1.01 ± 0.048	1.02 ± 0.033	0.992 ± 0.048	0.987 ± 0.079
DBR1 (UniProt Q9UK59)	0.985 ± 0.04	0.939 ± 0.083	0.974 ± 0.051	0.9598 ± 0.0087	0.992 ± 0.029	0.957 ± 0.022

Some entries already given, reduced to NP40-soluble protein abundance (concentration: 4mM) and NP40-soluble protein abundance (concentration: 10mM).
Target	NP40-soluble protein abundance (concentration: 4mM)	NP40-soluble protein abundance (concentration: 10mM)
NUDC (UniProt Q9Y266)	0.989 ± 0.059	1 ± 0.075
UniProt Q9UDY2 and related entries	1.02 ± 0.036	1.02 ± 0.054
USP24 (UniProt Q9UPU5)	0.978 ± 0.019	0.929 ± 0.034
SLC5A6 (UniProt Q9Y289)	1.01 ± 0.049	1.02 ± 0.021
UBQLN2 (UniProt Q9UHD9)	0.964 ± 0.022	0.952 ± 0.016

(continued)

Target	NP40-soluble protein abundance (concentration: 1mM)	NP40-soluble protein abundance (concentration: 2mM)	NP40-soluble protein abundance (concentration: 4mM)	NP40-soluble protein abundance (concentration: 6mM)	NP40-soluble protein abundance (concentration: 8mM)	NP40-soluble protein abundance (concentration: 10mM)
PEF1 (UniProt Q9UBV8)	0.951 ± 0.015	0.97 ± 0.028	0.982 ± 0.011	1.01 ± 0.015	0.991 ± 0.011	0.997 ± 0.037
EPDR1 (UniProt Q9UM22)	1.03 ± 0.015	1.03 ± 0.06	1.06 ± 0.046	1.09 ± 0.06	1.09 ± 0.016	1.102 ± 0.01
VPS51 (UniProt Q9UID3)	1.017 ± 0.0044	1.01 ± 0.037	1.01 ± 0.037	0.999 ± 0.029	0.975 ± 0.049	1.01 ± 0.024
ZNF148 (UniProt Q9UQR1)	1.02 ± 0.037	1.01 ± 0.034	1.01 ± 0.077	0.962 ± 0.033	0.985 ± 0.086	0.993 ± 0.092
UniProt Q9ULJ7 and related entries	0.925 ± 0.083	0.866 ± 0.015	0.919 ± 0.049	0.923 ± 0.082	0.943 ± 0.077	0.859 ± 0.069
DIS3 (UniProt Q9Y2L1)	0.987 ± 0.034	0.923 ± 0.071	0.97 ± 0.015	0.9496 ± 0.0077	0.966 ± 0.022	0.91 ± 0.016
UniProt Q9UN86-2	1.09 ± 0.036	1.18 ± 0.072	1.19 ± 0.052	1.25 ± 0.082	1.23 ± 0.062	1.26 ± 0.073
UniProt Q9Y237 and related entries	1.02 ± 0.019	1.1 ± 0.12	1.04 ± 0.033	1.08 ± 0.02	1.075 ± 0.01	1.1 ± 0.038
UniProt Q9UPQ9-1|Q9UPQ9 and related entries	1.02 ± 0.036	1.07 ± 0.035	1.04 ± 0.024	1.02 ± 0.032	0.984 ± 0.024	1.03 ± 0.025
PLXNA1 (UniProt Q9UIW2)	1.01 ± 0.022	1.03 ± 0.036	1.03 ± 0.026	1.01 ± 0.026	1 ± 0.025	1.03 ± 0.018
NOB1 (UniProt Q9ULX3)	0.972 ± 0.013	0.956 ± 0.027	0.984 ± 0.042	0.966 ± 0.023	1 ± 0.043	1 ± 0.047
STX8 (UniProt Q9UNK0)	0.999 ± 0.011	1 ± 0.039	1.01 ± 0.035	0.985 ± 0.044	0.969 ± 0.021	0.9382 ± 0.0082
FARSA (UniProt Q9Y285)	0.999 ± 0.034	0.963 ± 0.011	1.07 ± 0.071	1.09 ± 0.14	1.12 ± 0.15	1.13 ± 0.12
UniProt Q9ULX6 and related entries	0.928 ± 0.06	0.945 ± 0.057	0.912 ± 0.032	0.939 ± 0.087	0.893 ± 0.082	0.897 ± 0.054
UniProt Q9UDT6 and related entries	1.04 ± 0.041	1.06 ± 0.011	1.08 ± 0.047	1.1 ± 0.097	1.1 ± 0.15	1.1 ± 0.12
UniProt Q9Y2I1 and related entries	0.984 ± 0.021	0.99 ± 0.014	0.973 ± 0.026	0.951 ± 0.012	0.921 ± 0.01	0.948 ± 0.029
THRAP3 (UniProt Q9Y2W1)	1.11 ± 0.014	1.23 ± 0.1	1.2 ± 0.034	1.31 ± 0.044	1.32 ± 0.028	1.41 ± 0.03
COPS7A (UniProt Q9UBW8)	0.965 ± 0.024	0.988 ± 0.011	0.961 ± 0.03	0.941 ± 0.0075	0.963 ± 0.019	0.922 ± 0.0095
UFC1 (UniProt Q9Y3C8)	0.953 ± 0.062	1.03 ± 0.037	0.951 ± 0.058	0.95 ± 0.06	0.934 ± 0.046	0.886 ± 0.095
UniProt Q9UQ13 and related entries	1 ± 0.0038	1.03 ± 0.032	0.988 ± 0.017	0.982 ± 0.015	0.986 ± 0.013	0.981 ± 0.027

A few values from the results shown:
Under NP40-soluble protein abundance (concentration: 8mM), UniProt Q9ULJ7 and related entries is entered as 0.943 ± 0.077
Under NP40-soluble protein abundance (concentration: 6mM), UniProt Q9Y2I1 and related entries is entered as 0.951 ± 0.012

Later entries.

Target	NP40-soluble protein abundance (concentration: 1mM)	NP40-soluble protein abundance (concentration: 2mM)	NP40-soluble protein abundance (concentration: 4mM)	NP40-soluble protein abundance (concentration: 6mM)	NP40-soluble protein abundance (concentration: 8mM)	NP40-soluble protein abundance (concentration: 10mM)
UniProt Q9ULC4 and related entries	0.97 ± 0.029	0.929 ± 0.029	0.959 ± 0.027	1.01 ± 0.05	1.03 ± 0.018	0.983 ± 0.038
MRPS16 (UniProt Q9Y3D3)	0.975 ± 0.015	0.953 ± 0.051	0.939 ± 0.11	1 ± 0.038	1.02 ± 0.049	0.967 ± 0.093
UniProt Q9Y2V7 and related entries	0.959 ± 0.01	0.941 ± 0.02	0.948 ± 0.052	0.953 ± 0.033	0.934 ± 0.05	0.933 ± 0.047
UniProt Q9UHD8 and related entries	1 ± 0.013	1.01 ± 0.031	0.98 ± 0.021	0.985 ± 0.014	0.966 ± 0.025	0.988 ± 0.03
UniProt Q9UI30	0.961 ± 0.065	0.947 ± 0.029	0.92 ± 0.045	0.929 ± 0.079	0.943 ± 0.052	0.891 ± 0.098
VTI1B (UniProt Q9UEU0)	1.01 ± 0.019	1.02 ± 0.049	0.991 ± 0.016	0.991 ± 0.043	0.967 ± 0.058	0.957 ± 0.069
ENOPH1 (UniProt Q9UHY7)	1.04 ± 0.02	1.08 ± 0.081	1.04 ± 0.052	1.02 ± 0.039	1.05 ± 0.031	1.06 ± 0.067
UniProt Q9UL12 and related entries	0.97 ± 0.022	0.958 ± 0.046	0.978 ± 0.017	0.957 ± 0.012	0.975 ± 0.014	0.96 ± 0.011
WDR3 (UniProt Q9UNX4)	1.07 ± 0.015	1.09 ± 0.1	1.33 ± 0.039	1.55 ± 0.026	1.8 ± 0.064	1.78 ± 0.15
UniProt Q9ULR0 and related entries	1.011 ± 0.0053	1.07 ± 0.05	1.02 ± 0.024	1 ± 0.034	1.01 ± 0.044	1 ± 0.037
UniProt Q9Y282 and related entries	1.03 ± 0.041	1.03 ± 0.028	0.992 ± 0.049	1.01 ± 0.015	0.999 ± 0.056	1.02 ± 0.029
LRWD1 (UniProt Q9UFC0)	1.01 ± 0.013	1 ± 0.024	1.02 ± 0.022	0.979 ± 0.024	0.977 ± 0.018	0.958 ± 0.022
UniProt Q9UHL0 and related entries	1.02 ± 0.071	0.933 ± 0.068	1.23 ± 0.1	1.16 ± 0.077	1.03 ± 0.097	0.982 ± 0.073
AKAP11 (UniProt Q9UKA4)	0.979 ± 0.06	0.986 ± 0.015	0.982 ± 0.036	0.984 ± 0.066	0.968 ± 0.028	0.992 ± 0.075
UniProt Q9UG63 and related entries	1.04 ± 0.06	1.15 ± 0.065	1.41 ± 0.054	1.82 ± 0.11	2.25 ± 0.15	2.54 ± 0.26
UniProt Q9UIS9 and related entries	1.01 ± 0.013	1.02 ± 0.04	1.01 ± 0.018	0.99007 ± 0.00053	0.9622 ± 0.0053	1 ± 0.032
LUC7L2 (UniProt Q9Y383)	1.03 ± 0.047	1.08 ± 0.07	0.983 ± 0.023	0.999 ± 0.054	1.01 ± 0.044	1.2 ± 0.11
UniProt Q9Y2D5 and related entries	1.14 ± 0.073	1.23 ± 0.14	1.22 ± 0.086	1.21 ± 0.13	1.25 ± 0.11	1.27 ± 0.12
UniProt Q9UHH9	1.002 ± 0.003	1.04 ± 0.027	0.987 ± 0.025	1.01 ± 0.017	1.03 ± 0.026	1.02 ± 0.027
SPG7 (UniProt Q9UQ90)	0.9564 ± 0.0073	0.912 ± 0.042	0.939 ± 0.029	0.966 ± 0.013	0.9696 ± 0.0085	0.9492 ± 0.0031

— the supplement of paper PMC6411743
